The results in this text go back to paper PMC9033807.

Sequences of proteins named here, by UniProt entry; tags and fusion partners are left off.
UniProt Q9UKV8: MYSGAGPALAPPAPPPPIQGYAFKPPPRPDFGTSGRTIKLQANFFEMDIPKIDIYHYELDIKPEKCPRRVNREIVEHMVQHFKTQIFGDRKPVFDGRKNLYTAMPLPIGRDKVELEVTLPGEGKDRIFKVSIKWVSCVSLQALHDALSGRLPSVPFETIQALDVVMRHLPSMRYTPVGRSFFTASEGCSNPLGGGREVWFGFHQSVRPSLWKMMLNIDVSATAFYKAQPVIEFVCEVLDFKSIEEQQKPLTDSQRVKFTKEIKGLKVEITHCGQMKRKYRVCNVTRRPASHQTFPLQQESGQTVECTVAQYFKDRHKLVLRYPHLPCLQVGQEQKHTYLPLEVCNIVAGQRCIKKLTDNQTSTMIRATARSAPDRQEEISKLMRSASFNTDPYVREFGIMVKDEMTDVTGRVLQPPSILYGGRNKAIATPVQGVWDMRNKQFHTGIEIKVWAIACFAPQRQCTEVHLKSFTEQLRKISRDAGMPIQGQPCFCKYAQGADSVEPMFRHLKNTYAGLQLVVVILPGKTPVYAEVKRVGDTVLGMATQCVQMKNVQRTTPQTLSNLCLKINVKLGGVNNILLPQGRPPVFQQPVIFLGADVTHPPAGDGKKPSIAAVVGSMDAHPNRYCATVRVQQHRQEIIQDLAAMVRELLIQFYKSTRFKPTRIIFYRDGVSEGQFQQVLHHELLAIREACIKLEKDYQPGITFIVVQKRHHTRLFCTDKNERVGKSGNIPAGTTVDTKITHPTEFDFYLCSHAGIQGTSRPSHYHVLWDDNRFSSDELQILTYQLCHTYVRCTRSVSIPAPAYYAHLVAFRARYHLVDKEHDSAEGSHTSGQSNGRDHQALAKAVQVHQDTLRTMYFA

The target in this test is Argonaute2 (Ago2), endogenous (human (endogenous in H1299 and SCC9)) (UniProt Q9UKV8). The test can be described thus: co-IP; endogenous proteins; cells lysed in 50 mM Tris-HCl pH 8.0, 5 mM EDTA, 150 mM NaCl, 0.5% NP-40; immunoprecipitated with specific antibodies, protein A agarose; Western blotting; H1299 or SCC9 cells. On the technique in general: A western blot detects proteins with antibodies after separation by electrophoresis.

Results are given in words; binding and its absence hold for the method and conditions named. In cells and extracts the contact can be indirect. Some entries that bind do so weakly or less than the wild type.

B1: TAp63, endogenous (protein, UniProt Q9H3D4 1-680)
chain: MNFETSRCATLQYCPDPYIQRFVETPAHFSWKESYYRSTMSQSTQTNEFLSPEVFQHIWDFLEQPICSVQPIDLNFVDEPSEDGATNKIEISMDCIRMQDSDLSDPMWPQYTNLGLLNSMDQQIQNGSSSTSPYNTDHAQNSVTAPSPYAQPSSTFDALSPSPAIPSNTDYPGPHSFDVSFQQSSTAKSATWTYSTELKKLYCQIAKTCPIQIKVMTPPPQGAVIRAMPVYKKAEHVTEVVKRCPNHELSREFNEGQIAPPSHLIRVEGNSHAQYVEDPITGRQSVLVPYEPPQVGTEFTTVLYNFMCNSSCVGGMNRRPILIIVTLETRDGQVLGRRCFEARICACPGRDRKADEDSIRKQQVSDSTKNGDGTKRPFRQNTHGIQMTSIKKRRSPDDELLYLPVRGRETYEMLLKIKESLELMQYLPQHTIETYRQQQQQQHQHLLQKQTSIQSPSSYGNSSPPLNKMNSMNKLPSVSQLINPQQRNALTPTTIPDGMGANIPMMGTHMPMAGDMNGLSPTQALPPPLSMPSTSHCTPPPPYPTDCSIVSFLARLGCSSCLDYFTTQGLTTIYQIEHYSMDDLASLKIPEQFRHAIWKGILDHRQLHEFSSPSHLLRTPSSASTVSVGSSETRGERVIDAVRFTLRQTISFPPRDEWNDFNFDMDARRNKQQRIKEEGE
For B1, the binding entry was “binds”.
